Reference: paper doi:10.1101/2020.07.01.182105
Results are given in words; binding and its absence hold for the method and conditions named. A result given as binding can be weak or reduced; the word gives no strength. Tags and fused reporters may be left off the sequences shown.

Sequences of proteins named here, by UniProt entry; tags and fusion partners are left off. A change or cut given only in a name is not applied to a line headed by its entry.
UniProt P07280: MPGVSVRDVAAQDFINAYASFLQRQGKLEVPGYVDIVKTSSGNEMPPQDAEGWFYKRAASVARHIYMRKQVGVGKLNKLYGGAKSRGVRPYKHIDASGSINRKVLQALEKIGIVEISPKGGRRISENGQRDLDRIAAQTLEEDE
UniProt P0C0W9: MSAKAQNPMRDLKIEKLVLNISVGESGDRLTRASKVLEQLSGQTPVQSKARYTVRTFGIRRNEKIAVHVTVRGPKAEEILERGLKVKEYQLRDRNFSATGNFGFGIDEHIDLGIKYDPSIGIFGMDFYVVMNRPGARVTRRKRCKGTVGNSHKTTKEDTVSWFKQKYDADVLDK

Target: T1, eEF3 (eukaryotic elongation factor 3), C-terminally TAP-tagged (S. cerevisiae) (UniProt P16521)
T1 sequence: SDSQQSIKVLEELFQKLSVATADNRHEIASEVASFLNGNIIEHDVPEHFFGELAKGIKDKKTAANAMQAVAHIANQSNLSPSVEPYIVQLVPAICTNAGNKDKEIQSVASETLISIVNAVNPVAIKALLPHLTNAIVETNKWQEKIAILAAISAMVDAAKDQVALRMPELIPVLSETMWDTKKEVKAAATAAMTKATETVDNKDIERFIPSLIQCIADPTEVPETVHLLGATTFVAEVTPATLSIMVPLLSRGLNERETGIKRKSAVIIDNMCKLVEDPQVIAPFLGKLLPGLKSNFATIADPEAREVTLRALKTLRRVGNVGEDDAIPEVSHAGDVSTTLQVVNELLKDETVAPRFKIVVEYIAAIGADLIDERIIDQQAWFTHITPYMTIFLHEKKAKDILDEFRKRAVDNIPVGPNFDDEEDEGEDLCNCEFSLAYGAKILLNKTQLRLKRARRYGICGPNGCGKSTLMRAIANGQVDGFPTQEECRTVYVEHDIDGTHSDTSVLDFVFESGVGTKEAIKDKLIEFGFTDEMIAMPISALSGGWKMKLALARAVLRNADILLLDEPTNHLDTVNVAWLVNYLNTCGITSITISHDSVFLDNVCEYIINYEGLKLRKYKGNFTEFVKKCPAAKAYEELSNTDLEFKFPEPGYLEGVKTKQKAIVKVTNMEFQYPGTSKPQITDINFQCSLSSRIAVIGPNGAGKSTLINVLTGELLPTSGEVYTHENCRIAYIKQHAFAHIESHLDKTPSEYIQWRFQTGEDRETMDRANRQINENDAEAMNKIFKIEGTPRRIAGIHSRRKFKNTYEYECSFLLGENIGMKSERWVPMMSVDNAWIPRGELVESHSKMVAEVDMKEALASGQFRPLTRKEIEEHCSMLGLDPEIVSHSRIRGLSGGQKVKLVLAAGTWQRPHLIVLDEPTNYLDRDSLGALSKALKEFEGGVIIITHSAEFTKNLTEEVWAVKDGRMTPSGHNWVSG
Assay: cryo-EM structure

binding | Substance
binds | ribosomal protein eS19 (from UniProt P07280)
binds | ribosomal protein uL5 (from UniProt P0C0W9)
